Laboratory results published in patent publication US6245742A, “Peptide antagonists of cellular mitogenesis and motogenesis and their therapeutic use” (Pharmacia & Upjohn S.p.A., priority 1996, dated 2001).
At least one peptide structure holds a part that was inferred or is arguable (an end, a ring closure or a residue). Where a SMILES comes first, the peptide text is derived from it. [ ]: non-standard residue; d: D form. Pmp = N[C@@H](Cc1ccc(CP(=O)(O)O)cc1)C(=O)O

Legend:
Format in all cases: cell-based
MDCK cells [1] = assay: HGF mediated cell motility (scatter assay / Transwell migration) after cell zapping; conditions: peptide electroporated (1 mM solution), HGF stimulation, FIG. 1A, FIG. 2
MDCK cells [2] = assay: HGF-R mediated cell proliferation (BrdU incorporation) after cell zapping; conditions: peptide electroporated, FIG. 1C
[3] = tested on: Tpr-Met transformed cells; assay: Tpr-Met mediated cell invasiveness (chemoinvasion assay, Matrigel) after cell zapping; conditions: peptide electroporated, FIG. 1B
MDCK cells [4] = assay: Tubulogenesis assay induced by HGF after cell zapping; conditions: two-days culture of electroporated MDCK in collagen matrix; FIG. 3

CC(=O)N[C@@H](Cc1ccc(CP(=O)(O)O)cc1)C(=O)N[C@H](C(=O)N[C@@H](CC(N)=O)C(=O)N[C@H](C(N)=O)C(C)C)C(C)C [FCE 29408, Ac--Phe(p--CH2 PO3 H2)--Val--Asn--Val--NH2] (Ac-[Pmp]VNV-NH2)
effect on HGF mediated cell motility (MDCK cells [1]): efficiently block cell motility
effect on HGF-R mediated cell proliferation (MDCK cells [2]): efficiently block cell proliferation
effect on Tpr-Met mediated cell invasiveness [3]: efficiently block cell invasiveness
effect on tubulogenesis induced by HGF (MDCK cells [4]): totally inhibits the tubulogenesis
